The text below walks through data of ChEMBL document CHEMBL4513141, “CO-ADD screening of NIH (USA) - Clinical Collection” (2021).

Some of the results follow. Entries with a potency or affinity are not part of this list.

For the test, the system named is Acinetobacter baumannii. Conditions: Concentration 20 uM; ASSAY_TEST Inhibition of Bacterial Growth; detection method Absorption (OD600); MEDIA CAMHB; plate type 384well; NBS; CORNING #3640; time 18 hr.
Take `O=C1CCc2ccc(OCCCCN3CCN(c4cccc(Cl)c4Cl)CC3)cc2N1` [ARIPIPRAZOLE]: the Inhibition came out at 15.04%.

Regarding `CN(C/C=C/C#CC(C)(C)C)Cc1cccc2ccccc12.Cl` [TERBINAFINE HYDROCHLORIDE], the Inhibition was found to be 27.2%.

As for `COC(=O)C1=C(C)NC(C)=C(C(=O)OCC(C)C)C1c1ccccc1[N+](=O)[O-]` (stereo not drawn) [NISOLDIPINE], the Inhibition was determined as 27.99%.

`O=C1[C@H](CC[C@H](O)c2ccc(F)cc2)[C@@H](c2ccc(O)cc2)N1c1ccc(F)cc1` [EZETIMIBE] showed an Inhibition of 11.71%.

Consider `CN(C)CCN(Cc1ccccc1)c1ccccn1.Cl` [TRIPELENNAMINE HYDROCHLORIDE], for which the Inhibition was 11.98%.

With `Cc1cnc(C(=O)NCCc2ccc(S(=O)(=O)NC(=O)NC3CCCCC3)cc2)cn1` [GLIPIZIDE], the Inhibition is 16.47%.

Molecule `O=C(O)COCCN1CCN([C@H](c2ccccc2)c2ccc(Cl)cc2)CC1` [LEVOCETIRIZINE] showed an Inhibition of 19.94%.

In the case of `CN(C)CC[C@@H](c1ccc(Br)cc1)c1ccccn1.O=C(O)/C=C\C(=O)O` [DEXBROMPHENIRAMINE MALEATE], the Inhibition came to 3.09%.

Consider `CCCN1CCCC[C@H]1C(=O)Nc1c(C)cccc1C.Cl` [ROPIVACAINE HYDROCHLORIDE], for which the Inhibition is on record as 26.89%.

For `Br.CN(C)CCCC1(c2ccc(F)cc2)OCc2cc(C#N)ccc21` (stereo not drawn) [CITALOPRAM HYDROBROMIDE], the Inhibition came out at 7.47%.

In turn, `CC[C@H]1OC(=O)[C@H](C)C(=O)[C@H](C)[C@@H](O[C@@H]2O[C@H](C)C[C@H](N(C)C)[C@H]2O)[C@](C)(OC)C[C@@H](C)C(=O)[C@H](C)[C@@H]2N(CCCCn3cnc(-c4cccnc4)c3)C(=O)O[C@@]21C` registered an Inhibition of 8.47%.

`CC(C)NCC(O)c1cc(O)cc(O)c1` (stereo not drawn) [METAPROTERENOL] yielded an Inhibition of 9.69%.

`Cc1cccc(Nc2ccccc2C(=O)O)c1C` [MEFENAMIC ACID] came in with an Inhibition of 30.29%.

The molecule `CN(C)C(=O)Oc1ccc[n+](C)c1.[Br-]` [PYRIDOSTIGMINE BROMIDE] returned an Inhibition of 21.77%.

As for `CC(=O)OCC(=O)[C@@]12OC(C)(C)O[C@@H]1C[C@H]1[C@@H]3C[C@H](F)C4=CC(=O)C=C[C@]4(C)[C@@]3(F)[C@@H](O)C[C@@]12C` [FLUOCINONIDE], the Inhibition came to 20.38%.

Molecule `O=C1CCC(N2C(=O)c3ccccc3C2=O)C(=O)N1` (stereo not drawn) [THALIDOMIDE] showed an Inhibition of 24.03%.

In turn, `CN1CCc2cc(Cl)c(O)cc2[C@@H](c2ccccc2)C1.Cl` showed an Inhibition of 15.46%.

`Nc1nc(O)c2ncn(CCC(CO)CO)c2n1` [PENCICLOVIR] came in with an Inhibition of 30.92%.

For the molecule `COC(=O)C1=C(C)NC(C)=C(C(=O)OC(C)C)C1c1cccc2nonc12` (stereo not drawn) [ISRADIPINE], the Inhibition came out at 18.51%.

Take `CC(=O)SCC(Cc1ccccc1)C(=O)NCC(=O)OCc1ccccc1` (stereo not drawn) [RACECADOTRIL]: the Inhibition was 14.64%.

With `Cn1cnc([N+](=O)[O-])c1Sc1ncnc2[nH]cnc12` [AZATHIOPRINE], the Inhibition is given as 25.3%.

As to `OCCN1C[C@H](O)[C@@H](O)[C@H](O)[C@H]1CO` [MIGLITOL], the Inhibition is 27.09%.

As to `COc1ccc([C@@H]2Sc3ccccc3N(CCN(C)C)C(=O)[C@@H]2OC(C)=O)cc1.Cl` [DILTIAZEM HYDROCHLORIDE], the Inhibition worked out at 31.21%.

`C[C@H]1C[C@@H]2[C@H]([C@@H](O)C[C@@]3(C)[C@H]2CC[C@]3(O)C(=O)CO)[C@@]2(C)C=CC(=O)C=C12` [METHYLPREDNISOLONE]: the Inhibition is 19.64%.

Turning to `CC(COc1ccccc1Cc1ccccc1)N1CCCCC1.O=P(O)(O)O` (stereo not drawn), the Inhibition was 36.86%.

Molecule `Nc1ccn([C@@H]2CS[C@H](CO)O2)c(=O)n1` [LAMIVUDINE] yielded an Inhibition of 11.08%.

Consider `COc1ccccc1OCC(O)COC(N)=O` (stereo not drawn) [METHOCARBAMOL], for which the Inhibition is on record as 17.05%.

In turn, `Cl.Clc1cccc(Cl)c1NC1=NCCN1` [CLONIDINE HYDROCHLORIDE] yielded an Inhibition of 8.13%.

`C#C[C@]1(O)CC[C@H]2[C@@H]3CCC4=Cc5oncc5C[C@]4(C)[C@H]3CC[C@@]21C` [DANAZOL]: the Inhibition is 26.36%.

`CCC(=O)OCC(=O)[C@@]1(OC(=O)CC)[C@@H](C)C[C@H]2[C@@H]3CCC4=CC(=O)C=C[C@]4(C)[C@@]3(Cl)[C@@H](O)C[C@@]21C` [BECLOMETHASONE DIPROPIONATE]: the Inhibition was 18.55%.

Consider `CC[C@@H]1C(=O)OC[C@@H]1Cc1cncn1C.Cl` [PILOCARPINE HYDROCHLORIDE], for which the Inhibition is 29.28%.

Molecule `C=C1/C(=C\C=C2/CCC[C@]3(C)[C@@H]([C@H](C)CCCC(C)(C)O)CC[C@@H]23)C[C@@H](O)C[C@@H]1O` [CALCITRIOL] had an Inhibition of 24.08%.

Take `COc1ccccc1OCC(O)CN1CCN(CC(=O)Nc2c(C)cccc2C)CC1.Cl.Cl` (stereo not drawn) [RANOLAZINE HYDROCHLORIDE]: the Inhibition is 15.85%.

As for `Cc1ccc(S(=O)(=O)NC(=O)NN2CCCCCC2)cc1` [TOLAZAMIDE], the Inhibition came to 16.02%.

`CCCCC(=O)OC1(C(=O)CO)CCC2C3CCC4=CC(=O)CCC4(C)C3C(O)CC21C` (stereo not drawn) showed an Inhibition of 18.5%.

Regarding `NC(N)=Nc1nc(CSCC/C(N)=N/S(N)(=O)=O)cs1` [FAMOTIDINE], the Inhibition was 2.64%.

Regarding `CC1=C(/C=C/C(C)=C/C=C/C(C)=C\C(=O)O)C(C)(C)CCC1` [ISOTRETINOIN], the Inhibition came out at 13.74%.

For `CC(C)[N+]1(C)C2CCC1CC(OC(=O)C(CO)c1ccccc1)C2.[Br-]` (stereo not drawn), the Inhibition came out at 16.29%.

`CC(C)c1ccc2c(c1)c(SC(C)(C)C)c(CC(C)(C)C(=O)O)n2Cc1ccc(Cl)cc1` returned an Inhibition of 26.37%.

Turning to `CC1CC2C3CCC4=CC(=O)C=CC4(C)[C@@]3(Cl)C(O)CC2(C)C1(O)C(=O)CO` (stereo partly drawn), the Inhibition came to 27.71%.

`CC(Oc1c(Cl)cccc1Cl)C1=NCCN1.Cl` (stereo not drawn) [LOFEXIDINE HYDROCHLORIDE] registered an Inhibition of 19.83%.

Regarding `CO[C@H]1O[C@@H]2O[C@@]3(C)CC[C@H]4[C@H](C)CC[C@@H]([C@H]1C)[C@@]24OO3`, the Inhibition was determined as 30.63%.

On to `Cl.O=C1[C@H]2CCCC[C@H]2C(=O)N1CCCCN1CCN(c2nsc3ccccc23)CC1`, for which the Inhibition is 23.42%.
